This assay concerns the target Cullin1 (human (endogenous in L02 and THLE-2)) (UniProt Q13616). The assay is described as follows: affinity purification with mass spectrometry; Co-IP of Cullin1 from lysates of L02 cells treated with PA (0.4 mM, 24 h) and transfected with NC or siCAND1; quantitative mass spectrometry (Orbitrap Fusion).

Protein sequences, listed by entry. Tags and fused reporters are not part of them.
UniProt Q13616: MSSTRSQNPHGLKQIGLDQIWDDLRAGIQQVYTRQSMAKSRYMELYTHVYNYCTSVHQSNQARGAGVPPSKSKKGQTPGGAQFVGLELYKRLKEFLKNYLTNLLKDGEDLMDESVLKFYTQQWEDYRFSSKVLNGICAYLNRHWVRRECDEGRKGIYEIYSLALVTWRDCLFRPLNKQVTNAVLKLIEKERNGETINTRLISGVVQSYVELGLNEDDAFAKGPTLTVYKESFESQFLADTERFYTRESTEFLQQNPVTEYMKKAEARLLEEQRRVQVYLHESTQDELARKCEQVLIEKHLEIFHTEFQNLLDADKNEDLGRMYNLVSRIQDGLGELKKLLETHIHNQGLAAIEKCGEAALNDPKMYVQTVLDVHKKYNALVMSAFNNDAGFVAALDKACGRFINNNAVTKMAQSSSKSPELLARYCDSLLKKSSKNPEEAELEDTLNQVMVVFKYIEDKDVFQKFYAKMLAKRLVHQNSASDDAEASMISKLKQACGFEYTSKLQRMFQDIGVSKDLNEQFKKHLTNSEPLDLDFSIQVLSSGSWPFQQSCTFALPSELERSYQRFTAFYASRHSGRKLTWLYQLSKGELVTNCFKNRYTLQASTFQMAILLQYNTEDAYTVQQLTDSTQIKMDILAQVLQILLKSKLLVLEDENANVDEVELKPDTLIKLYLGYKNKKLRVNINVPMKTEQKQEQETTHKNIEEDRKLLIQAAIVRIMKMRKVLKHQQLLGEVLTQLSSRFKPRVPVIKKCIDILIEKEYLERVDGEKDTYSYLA
UniProt Q6P3S6: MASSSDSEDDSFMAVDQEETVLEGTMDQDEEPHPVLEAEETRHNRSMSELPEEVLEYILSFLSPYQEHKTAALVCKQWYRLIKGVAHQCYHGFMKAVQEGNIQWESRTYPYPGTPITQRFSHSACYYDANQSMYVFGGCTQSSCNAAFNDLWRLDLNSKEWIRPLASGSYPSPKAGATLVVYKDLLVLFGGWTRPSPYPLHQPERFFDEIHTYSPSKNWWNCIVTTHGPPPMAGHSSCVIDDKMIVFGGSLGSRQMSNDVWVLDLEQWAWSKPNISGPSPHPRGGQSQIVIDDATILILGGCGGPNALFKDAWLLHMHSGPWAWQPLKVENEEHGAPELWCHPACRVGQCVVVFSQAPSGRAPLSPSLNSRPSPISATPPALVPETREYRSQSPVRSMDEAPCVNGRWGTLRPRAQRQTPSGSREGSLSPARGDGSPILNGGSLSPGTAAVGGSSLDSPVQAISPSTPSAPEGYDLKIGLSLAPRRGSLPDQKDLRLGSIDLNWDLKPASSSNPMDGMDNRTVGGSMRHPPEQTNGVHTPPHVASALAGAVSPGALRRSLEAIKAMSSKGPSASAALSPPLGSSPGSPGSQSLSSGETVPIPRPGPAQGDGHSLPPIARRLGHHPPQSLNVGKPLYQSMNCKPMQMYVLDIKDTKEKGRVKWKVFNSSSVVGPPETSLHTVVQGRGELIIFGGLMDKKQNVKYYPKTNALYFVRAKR

These are yes or no findings as the source states them, for the method shown. In cells and extracts the contact can be indirect. A yes stands for co-enrichment or nearness to the bait. Other partners may have been found.

As to “F-box only protein 42 (FBXO42) (from UniProt Q6P3S6 1-717)”, the binding entry is listed as “binds”.

B1: acetyl-CoA acyltransferase 2 (ACAA2) (enzyme, UniProt P42765 1-397)
chain: MALLRGVFVVAAKRTPFGAYGGLLKDFTATDLSEFAAKAALSAGKVSPETVDSVIMGNVLQSSSDAIYLARHVGLRVGIPKETPALTINRLCGSGFQSIVNGCQEICVKEAEVVLCGGTESMSQAPYCVRNVRFGTKLGSDIKLEDSLWVSLTDQHVQLPMAMTAENLAVKHKISREECDKYALQSQQRWKAANDAGYFNDEMAPIEVKTKKGKQTMQVDEHARPQTTLEQLQKLPPVFKKDGTVTAGNASGVADGAGAVIIASEDAVKKHNFTPLARIVGYFVSGCDPSIMGIGPVPAISGALKKAGLSLKDMDLVEVNEAFAPQYLAVERSLDLDISKTNVNGGAIALGHPLGGSGSRITAHLVHELRRRGGKYAVGSACIGGGQGIAVIIQSTA
Take B1: the binding result is listed as “binds”.

Source of the values: paper PMC10394019.
